These results are taken from PubChem BioAssay AID1458 (National Center for Advancing Translational Sciences (NCATS), 2008).

Screen size: about 210,000 compounds; about 5,900 (2.8%) were called active. About 5% were inconclusive and are not listed. Calls come from the whole dose curve; as a rule, active = well fitted activation curve with a large enough effect; inconclusive = small, poorly fitted or top-dose-only effect; inactive = no such curve, though single readings can be large or run the other way. Only a part is listed here, and it is no random draw. Entries without a call were filed so in the source.
Potency is the fitted concentration of half-maximal effect.

A short description of this test: qHTS Assay for Enhancers of SMN2 Splice Variant Expression. For activity change, positive = activation: % of control where 0% means no effect. Note: nearly all actives have a fitted effect of over 55% in size. Conditions: HEK293 SMN2-luciferase splicing reporter, luminescence, 30-36 h; activity change, positive = activation: at 46.1 µM (top of the series) unless noted. In outline:
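qHTS luciferase splicing reporter: luminescence rises when SMN2 exon 7 is included in transfected HEK293 cells. Compound exposure lasted 30-36 h at 37C, with 4.5 mM final sodium butyrate as control, followed by a ONE-Glo read.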
Background: qHTS replaces the single test concentration by a dilution series.
As for `CCOC(=O)C(C)Oc1ccc(C2NC(=O)NC(C)=C2C(C)=O)cc1Br` (stereo not given), the activity change, positive = activation worked out at 64.1%.

Regarding `CCOc1cc(C(=S)N2CCOCC2)ccc1OS(=O)(=O)c1ccccc1`, the “activity change, positive = activation” value was inactive: -33.7%.

As for `Cc1c(Cl)cccc1NC(=S)NCc1cccn1C`, the activity change, positive = activation worked out at 4.32%.

Consider `Cc1ccc(-c2nc(C#N)c(NCCN3CCCCC3)o2)cc1`, for which the activity change, positive = activation was determined as 21.9%.

Take `CC1=C(c2ccc(C)c(C)c2)S(=O)(=O)N=C1N1CCC(C(=O)NCCc2ccc(Cl)cc2)CC1`: the activity change, positive = activation stood at 33.6%.

For `Cc1ccc2nc(SC(C)C(=O)N3CCOCC3)[nH]c2c1` (stereo not given), the Potency was active: 20 µM.

`CC(C)c1onc(C(=O)NCc2ccccc2)c1[N+](=O)[O-]`: the activity change, positive = activation worked out at 42.9%.

In the case of `Cc1ccc(-c2nnc(SCC(=O)N3CCCC3)o2)cc1`, the Potency was active: 14.1 µM.

As for `COc1ccc(Nc2c(-c3ccco3)nc3ccc(C)cn23)cc1`, the activity change, positive = activation was -35.9%.

In the case of `CCOC(=O)c1ccc2nc(NC(=O)C(C)C)sc2c1`, the Potency was active: 11.2 µM.

For the molecule `CCOC(=O)C1CCCN(Cc2cc(=O)oc3cc(C)ccc23)C1` (stereo not given), the activity change, positive = activation turned out to be 210%.

Consider `Cc1cc(C(F)(F)F)c(C#N)c(SCC(=O)Nc2nc3ccccc3s2)n1`, for which the “activity change, positive = activation” value was inactive: -87.9%.

With `c1ccc(-c2nnc(-c3ccco3)o2)cc1`, the activity change, positive = activation came to 174%.

`C=CCOC(=O)c1[nH]c2c(c1C)C(=O)CC(c1cc(OC)c(OC)c(OC)c1)C2` (stereo not given): the activity change, positive = activation was -89.6%.

`C/C(=N\Nc1ccc([N+](=O)[O-])cc1)c1ccco1`: the activity change, positive = activation worked out at 179%.

On to `O=C(Nc1nc2c(s1)CCCC2)c1cccnc1`, for which the activity change, positive = activation stood at 32.3%.

For `CCOC(=O)N1CCN(S(=O)(=O)c2ccc(OCC(=O)OC)cc2)CC1`, the activity change, positive = activation turned out to be 36.3%.

Regarding `CCOC(=O)c1cc(OC(=O)c2cccs2)n(-c2ccccc2)n1`, the activity change, positive = activation was determined as 37.2%.

As for `Cc1ccccc1NC(=O)C(=Cc1ccc(C(=O)O)cc1)C(=O)Nc1ccccc1C`, the “activity change, positive = activation” value is inactive: -52.7%.

For the molecule `O=C(CC1C(=O)NCCN1C(=O)c1ccc(F)cc1)OCc1ccccc1` (stereo not given), the activity change, positive = activation was found to be 56%.

On to `Cc1occc1C(=O)NCc1ccccc1F`, for which the activity change, positive = activation was determined as 21.8%.

For `Oc1oc(-c2ccccc2Br)nc1/C=N/c1ccccn1`, the activity change, positive = activation was found to be 45.8%.

Consider `O=C(NCCCN1CCOCC1)c1ccccc1-c1ccccc1`, for which the activity change, positive = activation was determined as 48%.

With `O=C(Nc1ccc2c(c1)CCC2)c1c(F)cccc1Cl`, the Potency is active: 14.1 µM.

Consider `Cn1c(=O)c2c(c3ccccc31)OC(C)(C)CC2`, for which the activity change, positive = activation was found to be 51.3%.

Consider `Cc1ccc(-c2cn3cccnc3n2)cc1`, for which the activity change, positive = activation is 40%.

Turning to `Cc1ccc(C(=O)NCCNS(C)(=O)=O)cc1`, the activity change, positive = activation turned out to be 37.4%.

With `CCOc1ccc(/C=N/N(C)c2ccccc2)cc1OC`, the Potency is active: 25.1 µM.

Take `C#CCNC(=O)/C=C/c1ccc(C)cc1`: the Potency is active: 12.6 µM.

With `COc1ccc(C(O)(CCc2ccccc2)CCN2CCCCC2)cc1` (stereo not given), the “activity change, positive = activation” value is inactive: -66.6%.

Take `C=CCNc1ncnc2c1[nH]c1ccc(C)cc12`: the Potency was active: 2.82 µM.

As to `Cc1nnc2c(-c3ccccc3)nc3ccccc3n12`, the activity change, positive = activation is 30.8%.

Turning to `CCNc1nc(N)c(C(=O)c2ccc(Cl)s2)s1`, the Potency is active: 20 µM.

In the case of `CCOC(CCn1c(SCc2cccc([N+](=O)[O-])c2)nc2ccccc2c1=O)OCC`, the “activity change, positive = activation” value is inactive: -35.4%.

For the molecule `Cc1cc(NC(=O)CCCSc2nc(-c3ccco3)cc(C(F)(F)F)n2)n(-c2ccccc2)n1`, the “activity change, positive = activation” value is inactive: -40.6%.

In the case of `Cc1nc2ccccc2c(=O)n1NC(=O)c1c(O)c2ccccc2n(C)c1=O`, the activity change, positive = activation is -53.8%.

As to `CC(C)Oc1ccc(C(=O)Nc2cccc3cccnc23)cc1`, the activity change, positive = activation is 31.4%.

`CCOc1ccc2nc(NS(C)(=O)=O)sc2c1`: the Potency was active: 14.1 µM.

As to `Cc1sc(=NC(=O)c2ccco2)n(C)c1-c1ccccc1`, the Potency was active: 2.24 µM.

With `COc1ccc(CNC(=O)C2CCCN(S(=O)(=O)c3c(C)n[nH]c3C)C2)cc1` (stereo not given), the activity change, positive = activation was found to be 19.7%.

`Cc1ccc(S(=O)(=O)N(C)CC(=O)Nc2nc3ccccc3s2)cc1`: the activity change, positive = activation was -40.4%.

Take `N/C(=N\OC(=O)COc1ccc(Br)cc1Cl)c1cccnc1`: the Potency is active: 17.8 µM.

Take `CCCN1CCN(C(=S)Nc2ccc3nc(N4CCN(CC)CC4)cc(C)c3c2)CC1`: the activity change, positive = activation came out at 43.9%.

In the case of `Cc1cc(NC(=O)c2ccc(Cn3nc(C)c(Br)c3C)o2)no1`, the Potency was active: 20 µM.

Turning to `CC(C)(C)NS(=O)(=O)c1ccc(CCC(=O)Nc2cc(Cl)ccc2Oc2ccccc2)cc1`, the activity change, positive = activation was -71.5%.

For the molecule `Cc1ccc(P(=Nc2ccccc2)(N2CCOCC2)N2CCOCC2)o1`, the activity change, positive = activation is 50.5%.

On to `CCOc1ccc(NC(=O)c2cc3c(C)nc4ccccc4c3o2)cc1`, for which the “activity change, positive = activation” value is inactive: -32.5%.

In the case of `CCCNC(=O)Nc1nccs1`, the “activity change, positive = activation” value is inactive: -15.8%.

With `CCn1nnc(NC(=O)c2ccc(C(C)(C)C)cc2)n1`, the activity change, positive = activation turned out to be 117%.

With `O=C(Nc1ccc(S(=O)(=O)N2CCCCC2)cc1)C1CCCN(C(=O)c2ccc(Cl)cc2)C1` (stereo not given), the activity change, positive = activation was -64.2%.

Turning to `COC(=O)c1sccc1NC(=O)C1C2C=CC(O2)C1C(=O)O` (stereo not given), the activity change, positive = activation worked out at 28.8%.

Consider `CCOc1ccccc1NS(=O)(=O)c1cccc2nsnc12`, for which the activity change, positive = activation came to 31.2%.

Take `Cc1ccc(OCCSc2nc(N)cc(N)n2)cc1`: the activity change, positive = activation was found to be 66.8%.

With `COc1cc2nc(SCC(=O)NCCc3ccccc3)n(Cc3ccco3)c(=O)c2cc1OC`, the activity change, positive = activation was found to be 34.8%.

With `C=C(C)c1cccc(C(C)(C)NC(=O)N2CCCC(C)C2)c1` (stereo not given), the activity change, positive = activation is -37.8%.
